Experiment [1] has as its target T1, GST-RanBP6 fusion protein (human) (UniProt O60518).
T1 sequence: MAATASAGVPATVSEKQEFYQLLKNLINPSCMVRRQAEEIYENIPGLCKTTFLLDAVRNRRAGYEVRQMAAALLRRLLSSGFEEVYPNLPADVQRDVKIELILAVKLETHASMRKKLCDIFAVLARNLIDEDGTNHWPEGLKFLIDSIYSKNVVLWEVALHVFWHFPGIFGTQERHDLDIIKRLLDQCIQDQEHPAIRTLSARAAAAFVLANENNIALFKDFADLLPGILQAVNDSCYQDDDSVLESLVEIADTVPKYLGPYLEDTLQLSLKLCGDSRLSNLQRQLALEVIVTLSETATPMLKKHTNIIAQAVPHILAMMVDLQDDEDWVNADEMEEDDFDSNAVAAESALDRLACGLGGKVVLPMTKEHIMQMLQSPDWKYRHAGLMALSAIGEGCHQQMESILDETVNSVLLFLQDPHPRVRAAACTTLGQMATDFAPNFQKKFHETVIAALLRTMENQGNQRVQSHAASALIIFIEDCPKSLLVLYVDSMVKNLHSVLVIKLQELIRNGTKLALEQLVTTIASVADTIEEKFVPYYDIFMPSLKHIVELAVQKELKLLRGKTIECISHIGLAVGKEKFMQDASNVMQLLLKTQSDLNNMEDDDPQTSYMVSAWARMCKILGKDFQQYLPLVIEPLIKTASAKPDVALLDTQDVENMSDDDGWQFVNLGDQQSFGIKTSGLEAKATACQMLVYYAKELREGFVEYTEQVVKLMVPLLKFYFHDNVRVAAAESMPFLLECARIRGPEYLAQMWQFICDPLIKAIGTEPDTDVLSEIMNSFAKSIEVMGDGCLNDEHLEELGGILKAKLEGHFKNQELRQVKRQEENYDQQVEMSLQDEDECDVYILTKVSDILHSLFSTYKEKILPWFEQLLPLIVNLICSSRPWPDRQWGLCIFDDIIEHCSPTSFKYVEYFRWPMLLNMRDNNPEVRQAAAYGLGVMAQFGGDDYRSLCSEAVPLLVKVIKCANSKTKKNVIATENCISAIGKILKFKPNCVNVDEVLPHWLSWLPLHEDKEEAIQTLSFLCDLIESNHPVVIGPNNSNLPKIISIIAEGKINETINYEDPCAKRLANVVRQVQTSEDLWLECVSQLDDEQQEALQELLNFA
Description: pull-down; GST-RanBP6 beads incubated with lysates of Pten knockout (Pten Δ/Δ) MEFs; immunoblot for endogenous EGFR; only the target purified.

By UniProt entry, the sequences of proteins in these tests, tags left out. Residues count along the entry.
UniProt P16234, residues 24-1089: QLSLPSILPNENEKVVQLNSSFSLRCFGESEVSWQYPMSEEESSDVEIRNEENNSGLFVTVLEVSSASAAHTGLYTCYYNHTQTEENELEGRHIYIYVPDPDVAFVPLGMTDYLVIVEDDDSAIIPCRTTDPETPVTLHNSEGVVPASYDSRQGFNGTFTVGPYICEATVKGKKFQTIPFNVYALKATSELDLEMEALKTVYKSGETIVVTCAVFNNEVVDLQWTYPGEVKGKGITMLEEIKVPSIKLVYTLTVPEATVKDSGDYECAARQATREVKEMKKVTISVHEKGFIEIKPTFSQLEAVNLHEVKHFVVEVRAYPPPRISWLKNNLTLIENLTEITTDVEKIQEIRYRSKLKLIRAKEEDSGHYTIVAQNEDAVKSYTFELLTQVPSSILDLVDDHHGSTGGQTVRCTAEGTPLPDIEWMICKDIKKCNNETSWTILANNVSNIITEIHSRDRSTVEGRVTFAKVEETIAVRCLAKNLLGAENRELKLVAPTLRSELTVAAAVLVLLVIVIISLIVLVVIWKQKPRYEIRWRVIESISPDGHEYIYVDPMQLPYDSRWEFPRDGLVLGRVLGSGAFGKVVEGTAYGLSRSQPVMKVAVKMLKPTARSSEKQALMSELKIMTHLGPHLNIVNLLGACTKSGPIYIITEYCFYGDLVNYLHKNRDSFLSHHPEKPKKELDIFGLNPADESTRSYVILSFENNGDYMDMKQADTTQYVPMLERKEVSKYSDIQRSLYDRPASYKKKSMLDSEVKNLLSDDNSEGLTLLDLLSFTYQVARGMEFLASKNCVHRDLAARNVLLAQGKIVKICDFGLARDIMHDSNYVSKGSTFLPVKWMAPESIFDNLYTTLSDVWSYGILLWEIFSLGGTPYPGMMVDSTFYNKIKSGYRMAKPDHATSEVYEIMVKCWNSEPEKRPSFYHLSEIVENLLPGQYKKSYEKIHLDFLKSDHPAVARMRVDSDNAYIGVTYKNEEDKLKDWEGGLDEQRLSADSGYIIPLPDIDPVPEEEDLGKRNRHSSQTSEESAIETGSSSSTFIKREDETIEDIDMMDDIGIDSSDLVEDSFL
UniProt P18754: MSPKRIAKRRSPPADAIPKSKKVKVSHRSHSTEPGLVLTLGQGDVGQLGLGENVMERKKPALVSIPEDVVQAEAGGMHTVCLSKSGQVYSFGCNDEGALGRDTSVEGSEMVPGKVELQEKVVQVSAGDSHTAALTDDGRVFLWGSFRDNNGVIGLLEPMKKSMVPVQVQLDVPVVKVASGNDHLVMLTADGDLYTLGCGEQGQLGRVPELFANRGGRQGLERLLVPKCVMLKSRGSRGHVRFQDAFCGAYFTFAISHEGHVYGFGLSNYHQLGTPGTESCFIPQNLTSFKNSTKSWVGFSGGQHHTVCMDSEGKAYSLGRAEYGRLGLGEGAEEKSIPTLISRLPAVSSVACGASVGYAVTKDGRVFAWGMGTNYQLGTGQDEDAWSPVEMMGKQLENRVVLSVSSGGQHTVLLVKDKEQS
UniProt Q14974: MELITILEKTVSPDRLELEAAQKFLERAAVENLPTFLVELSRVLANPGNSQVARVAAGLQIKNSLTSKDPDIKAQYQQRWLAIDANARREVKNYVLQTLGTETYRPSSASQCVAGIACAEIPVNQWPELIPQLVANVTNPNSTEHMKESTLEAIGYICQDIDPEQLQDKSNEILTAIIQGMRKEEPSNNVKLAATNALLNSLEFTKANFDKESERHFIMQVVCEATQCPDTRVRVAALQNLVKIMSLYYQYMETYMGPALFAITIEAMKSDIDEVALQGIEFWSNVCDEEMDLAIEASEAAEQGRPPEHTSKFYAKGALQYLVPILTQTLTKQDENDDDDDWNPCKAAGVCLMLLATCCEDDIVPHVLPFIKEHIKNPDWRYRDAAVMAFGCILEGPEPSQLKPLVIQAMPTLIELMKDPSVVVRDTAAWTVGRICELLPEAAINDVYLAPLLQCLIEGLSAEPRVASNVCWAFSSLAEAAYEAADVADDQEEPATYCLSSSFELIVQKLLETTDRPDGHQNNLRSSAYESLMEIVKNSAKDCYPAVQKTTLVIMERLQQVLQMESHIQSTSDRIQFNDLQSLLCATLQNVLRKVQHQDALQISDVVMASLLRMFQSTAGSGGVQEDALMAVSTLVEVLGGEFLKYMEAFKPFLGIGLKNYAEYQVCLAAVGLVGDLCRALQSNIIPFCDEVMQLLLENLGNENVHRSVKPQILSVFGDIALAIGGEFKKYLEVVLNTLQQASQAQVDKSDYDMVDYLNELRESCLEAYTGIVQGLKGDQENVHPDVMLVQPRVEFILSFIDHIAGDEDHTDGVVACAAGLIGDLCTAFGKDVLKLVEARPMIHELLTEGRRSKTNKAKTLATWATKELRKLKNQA

Experiment [2] deals with T1, GST-RanBP6 fusion protein (human). Description: pull-down; GST-RanBP6 beads incubated with lysates of Pten lox/lox MEFs; immunoblot for endogenous EGFR; only the target purified. (In general: Immunoblotting shows a protein as a band on a membrane.)
Experiment [3] has as its target T2, V5 epitope tagged RanBP6-V5 (Ran-binding protein 6) (human) (UniProt O60518).
T2 sequence: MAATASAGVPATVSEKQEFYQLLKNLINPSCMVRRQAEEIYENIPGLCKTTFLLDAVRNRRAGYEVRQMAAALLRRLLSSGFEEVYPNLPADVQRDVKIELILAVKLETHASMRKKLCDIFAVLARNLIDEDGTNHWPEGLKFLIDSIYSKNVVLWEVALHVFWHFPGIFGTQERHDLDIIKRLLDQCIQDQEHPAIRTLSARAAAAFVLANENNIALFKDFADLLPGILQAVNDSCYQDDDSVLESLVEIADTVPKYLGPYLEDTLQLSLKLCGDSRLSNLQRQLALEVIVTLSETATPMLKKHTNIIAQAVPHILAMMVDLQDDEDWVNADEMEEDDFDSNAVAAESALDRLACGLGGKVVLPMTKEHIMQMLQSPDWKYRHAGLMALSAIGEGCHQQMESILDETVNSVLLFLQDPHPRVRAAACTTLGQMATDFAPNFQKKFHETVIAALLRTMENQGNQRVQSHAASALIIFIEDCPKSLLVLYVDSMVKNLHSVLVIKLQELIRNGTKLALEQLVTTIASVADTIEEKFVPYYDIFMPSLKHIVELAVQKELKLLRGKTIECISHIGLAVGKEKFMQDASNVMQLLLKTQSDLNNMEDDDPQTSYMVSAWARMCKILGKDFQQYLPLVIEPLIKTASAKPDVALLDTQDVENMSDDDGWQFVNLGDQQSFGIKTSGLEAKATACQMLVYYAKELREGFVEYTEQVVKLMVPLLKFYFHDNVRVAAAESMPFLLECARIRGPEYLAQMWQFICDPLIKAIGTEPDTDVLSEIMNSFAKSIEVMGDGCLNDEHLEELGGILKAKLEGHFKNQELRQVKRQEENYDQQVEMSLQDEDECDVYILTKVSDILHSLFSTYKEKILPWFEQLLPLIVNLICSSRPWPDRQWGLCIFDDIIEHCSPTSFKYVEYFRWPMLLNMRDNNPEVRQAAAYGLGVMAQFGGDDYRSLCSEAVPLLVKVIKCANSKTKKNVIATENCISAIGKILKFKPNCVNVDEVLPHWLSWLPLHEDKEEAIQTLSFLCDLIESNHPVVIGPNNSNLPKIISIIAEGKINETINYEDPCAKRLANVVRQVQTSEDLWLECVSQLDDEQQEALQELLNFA
Description: co-IP; immunoprecipitation with a V5 antibody from LN18 cells transduced with the Dox-inducible RanBP6-V5 vector (- and + Dox); blot with PDGFRA and V5 antibodies.

Experiment [4] has as its target T1, GST-RanBP6 fusion protein (human). Description: pull-down; GST-RanBP6 on beads incubated with the nuclear fraction of HEK-293T cells; fractionated lysates normalized to cell number (cytoplasm:nuclear = 50:1); immunoblot; only the target purified.
Experiment [5] has as its target T3, RanBP6-V5 (doxycycline-inducible V5-tagged RanBP6) (human) (UniProt O60518).
T3 sequence: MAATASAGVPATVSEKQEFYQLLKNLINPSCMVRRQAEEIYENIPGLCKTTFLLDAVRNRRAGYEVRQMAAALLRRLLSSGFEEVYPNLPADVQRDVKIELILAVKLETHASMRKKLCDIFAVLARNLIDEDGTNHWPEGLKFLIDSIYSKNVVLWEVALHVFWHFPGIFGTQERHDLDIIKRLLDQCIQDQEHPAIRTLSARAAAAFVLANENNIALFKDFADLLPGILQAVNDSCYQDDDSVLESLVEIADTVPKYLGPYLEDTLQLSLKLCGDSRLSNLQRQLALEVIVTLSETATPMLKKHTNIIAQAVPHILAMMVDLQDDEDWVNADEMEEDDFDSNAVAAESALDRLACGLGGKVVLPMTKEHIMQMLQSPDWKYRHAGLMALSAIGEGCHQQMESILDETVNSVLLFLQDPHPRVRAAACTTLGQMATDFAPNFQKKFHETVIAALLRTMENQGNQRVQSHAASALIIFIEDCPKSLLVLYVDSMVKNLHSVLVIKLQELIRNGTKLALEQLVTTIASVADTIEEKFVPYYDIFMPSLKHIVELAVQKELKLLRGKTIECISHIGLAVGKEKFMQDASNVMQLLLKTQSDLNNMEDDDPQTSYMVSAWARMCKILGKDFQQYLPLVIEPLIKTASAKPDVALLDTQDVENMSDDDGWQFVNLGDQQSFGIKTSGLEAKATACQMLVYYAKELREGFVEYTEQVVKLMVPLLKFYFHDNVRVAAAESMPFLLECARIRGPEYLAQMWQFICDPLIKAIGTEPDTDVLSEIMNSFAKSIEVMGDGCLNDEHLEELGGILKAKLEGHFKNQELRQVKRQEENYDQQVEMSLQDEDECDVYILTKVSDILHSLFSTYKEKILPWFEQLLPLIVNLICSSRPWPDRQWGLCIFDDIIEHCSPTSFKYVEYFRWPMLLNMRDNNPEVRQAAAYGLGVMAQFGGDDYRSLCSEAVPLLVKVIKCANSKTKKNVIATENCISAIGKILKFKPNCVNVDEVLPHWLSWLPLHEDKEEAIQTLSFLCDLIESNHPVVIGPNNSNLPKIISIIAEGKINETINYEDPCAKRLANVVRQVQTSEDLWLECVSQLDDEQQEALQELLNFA
Briefly: co-IP; IP with V5 antibody from lysates of A431 cells with Dox-inducible RanBP6-V5 (JS lysis buffer), immunoblot for EGFR; also cells serum starved and induced with EGF (100 ng/ml) for 5 min, which reduced the interaction.

Experiment [6] addresses T1, GST-RanBP6 fusion protein (human). Briefly: pull-down; about 25 μg GST-RanBP6 beads incubated with 500 μg HEK-293T whole-cell lysate for 2-4 h in the cold; cells serum starved 12 h and stimulated with EGF (100 ng/ml) or grown in full media; for EGFR also pretreatment with the AKT inhibitor MK-2206 (EGF reduced the association, MK-2206 rescued it); immunoblot; only the target purified.

No constants are given. Whether binding was seen depends on the method and setting. In cells and extracts the contact can be indirect. Some entries that bind do so weakly or less than the wild type. Tags and fused reporters may be left off the sequences shown.

For “EGFR, endogenous in mouse embryonic fibroblasts (from UniProt Q01279 25-1210) (receptor)”, the binding result in experiment [1] is “no binding (condition: lysates of Pten knockout MEFs)”; in experiment [2] it was “binds”. Turning to “Platelet-derived Growth Factor Receptor alpha (PDGFRA) (from UniProt P16234 24-1089)”, the binding result in experiment [3] is on record as “no binding”. Take RCC1 (from UniProt P18754 1-421): in experiment [4], the binding entry is reported as “binds”. For the substance “epidermal growth factor receptor (EGFR) (from UniProt P00533 25-1210)”, the binding entry in experiment [5] and in experiment [6] was “binds” throughout. “importin subunit β-1 (from UniProt Q14974 1-876)”: the binding entry in experiment [6] is given as “binds”.

For the origin of these results see paper PMC5725448.
